The results in this text go back to PubChem BioAssay AID1347426 (Functional Genomics Laboratory (NCATS/FGL), 2020).

Screen size: about 31,000 sequences; about 1,400 (4.5%) were called active.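 The calls were made as follows: active = median seed-adjusted z-score above 1 or below -1; inactive = the rest.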 Some of the results follow.

The assay is described as follows: Novel Modifiers of Survival Motor Neuron (SMN) Protein: Gene Identification via Genome-wide siRNA Screen.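 Also: luminescence tracks full-length SMN protein made from the SMN2 reporter.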 The settings on record: HEK293T SMN2-luciferase reporter, siRNA knockdown, 72 h; actives lie on both sides. The gist of the method: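 Genome-wide siRNA screen (10418 genes, 3 siRNAs each, 1 pmol per well) by reverse transfection in HEK293T cells stably carrying an SMN2-luciferase reporter; luminescence after 72 hours, normalized to negative-control siRNA, log10-transformed, MAD-scored.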
(In general: In a reporter assay the amount or activity of a reporter protein is the signal.)
Take GGAACUUUGCGAUACAUGATT against EIF2AK2: the median seed-adjusted z-score was inactive: 0.419.

CCCAAUAUGUACAACAGUATT against TARSL2: the median seed-adjusted z-score was inactive: 0.361.

As to AGAAGGUUUUGUUCAGGGATT against PPM1M, the median seed-adjusted z-score is inactive: 0.

Regarding AACUGCUCUUUUUACUUUATT against U2AF1L4, the median seed-adjusted z-score was inactive: 0.

Regarding GCCUUUCAAUCGGCCCAUUTT against DGAT2L6, the median seed-adjusted z-score was inactive: -0.528.

GUAAGGCAAAGACUCCCUATT against ZNF673: the median seed-adjusted z-score is inactive: 0.419.

Turning to GAAACGCAACUAUAUCCUATT against HNRPUL1, the median seed-adjusted z-score is inactive: -0.047.

For the sequence CCCAAAUUCUGAGACGGCATT against RFX4, the median seed-adjusted z-score is inactive: -0.0226.

Turning to GGAAGACAGAUAUGAGGAATT against TPM1, the median seed-adjusted z-score was inactive: 0.659.

For GGGACUAAUUUUACGAUAUTT against SLC9A9, the median seed-adjusted z-score is inactive: 0.143.

On to GAUUUGGUAUCAGCACUAATT against FA2H, for which the median seed-adjusted z-score was inactive: 0.0497.

On to CAACAACGCAAGAACCUUUTT against BBX, for which the median seed-adjusted z-score is inactive: -0.0824.

As for GCAUCAACAGUAAUGAGAATT against KRT39, the median seed-adjusted z-score was inactive: 0.161.

Take CAGGUAUUGUGGAAAGUAUTT against ADH4: the median seed-adjusted z-score was inactive: -0.0991.

GCAUAGCCCUUACUCUACATT against ZNF527: the median seed-adjusted z-score is inactive: 0.

Turning to GCCUCGGAGAAGUCAAUGUTT against GFI1, the median seed-adjusted z-score is inactive: -0.047.

As to AGAGCAUUGGGUACACCAATT against COL6A2, the median seed-adjusted z-score was inactive: 0.0119.

Consider GGUUAUCUCUGGAGGACCATT against PPRC1, for which the median seed-adjusted z-score was inactive: 0.

As to GGAGAAAGGUUCGUUAAAATT against PTPN1, the median seed-adjusted z-score is inactive: 0.05.

Take GGGAAUCAGCUCACAGAGATT against PODN: the median seed-adjusted z-score is inactive: 0.589.

Regarding CUACUGCAAGUACUGCUUUTT against B9D1, the median seed-adjusted z-score was inactive: -0.161.

As for GGUUUUGACCAGACCAUUATT against LSM8, the median seed-adjusted z-score is inactive: -0.44.

As to CGGAAGAACUUUGCUCGGATT against PNCK, the median seed-adjusted z-score was inactive: 0.

For the sequence CGAUAUACCUAUAACGACATT against CR2, the median seed-adjusted z-score was inactive: 0.71.

CAUAGGAUCUUCAUGAACATT against GALNT10: the median seed-adjusted z-score was inactive: 0.

As to GCACUAUCCUCAACAAGAUTT against RAB4B, the median seed-adjusted z-score is inactive: -0.207.

In the case of CCAGCAAGCCGACAAAUGATT against BTBD11, the median seed-adjusted z-score was inactive: -0.00434.

For GGCUUCUUCUCAACCUGUATT against DAB2, the median seed-adjusted z-score was inactive: 0.678.

Take GGAACUACCAGAUCGGGAATT against MYO9B: the median seed-adjusted z-score is inactive: -0.0287.

With CCGAUACCCUUUAACUAUATT against CA8, the median seed-adjusted z-score was inactive: 0.172.

With CCGGUCUGCUUUUGCGUAATT against IL13RA2, the median seed-adjusted z-score is inactive: 0.113.

For the sequence GCUCAUUAAGCAUCAAAGATT against ZNF605, the median seed-adjusted z-score is inactive: -0.596.

Take CCACGAAAAUUACAUAAUUTT against KAL1: the median seed-adjusted z-score is inactive: 0.0824.

On to CAGAUGUCAUGAAUCAAGATT against RPUSD2, for which the median seed-adjusted z-score was inactive: -0.215.

GCCUCCGACUGGUUUGACATT against ST3GAL2: the median seed-adjusted z-score is inactive: -0.139.

As for CCAAGCACUCCUUACCAUATT against PPP1R2, the median seed-adjusted z-score is inactive: 0.208.

As to GAUGAUGCCUAGUAAAUUATT against MBD2, the median seed-adjusted z-score is inactive: -0.067.

On to AAUUGAGGAAUACAAAAGATT against PAX3, for which the median seed-adjusted z-score is inactive: 0.0223.

For GCAGACAACUCCUCGAUGATT against GPR68, the median seed-adjusted z-score is inactive: -0.0233.

As to GCAUCGAAUUUGCAGAACATT against PNN, the median seed-adjusted z-score was active: 1.29.

As for CCCUGAAGGUUACCUCUUUTT against MGRN1, the median seed-adjusted z-score is inactive: -0.318.

Regarding AGAGCGUGAGUGGGCAGAATT against CBFA2T3, the median seed-adjusted z-score was inactive: -0.135.

Consider GAGCUGCUAUCAGACAAAUTT against ETS2, for which the median seed-adjusted z-score is inactive: 0.636.

As to CAGUGACCUUUCUAAGACATT against ADAMTS6, the median seed-adjusted z-score is inactive: 0.023.

With CCGUCACCAUCCUCAUCUATT against PORCN, the median seed-adjusted z-score is inactive: 0.214.

On to CGAGUGCAGUGUCAAGUUUTT against ZNF423, for which the median seed-adjusted z-score is inactive: 0.0134.

As to ACAUCGAACUAAGACCUGATT against KCNK6, the median seed-adjusted z-score was inactive: -0.199.

GCAGUUUGGUGUUUACCCATT against ZNF536: the median seed-adjusted z-score is inactive: -0.295.

Take CUAUAUGACCCAUACCAUUTT against GLB1L: the median seed-adjusted z-score was inactive: -0.263.

For CUAUCACUAUUCAAGGCAATT against SEMA6D, the median seed-adjusted z-score is inactive: 0.0624.

With CUUCAUUGAUUGUAUCAGATT against PREPL, the median seed-adjusted z-score was inactive: -0.459.

For CGAUCACAACUGAAACUCATT against PDE8A, the median seed-adjusted z-score is inactive: 0.302.

Turning to CCAACAUUGCCUACCCUAATT against SLC5A9, the median seed-adjusted z-score is inactive: 0.15.

As for GUGGUCACUUGGUUCCAGATT against LBX2, the median seed-adjusted z-score is inactive: 0.538.

As to GCCGUAGACAGAAUCAUGATT against REEP6, the median seed-adjusted z-score is inactive: -0.348.

On to GCCUGAUUACUGUUAUGCATT against DHX8, for which the median seed-adjusted z-score is inactive: -0.251.

Take ACACUACGGCUGAAUCUCATT against EMILIN1: the median seed-adjusted z-score is inactive: 0.

Turning to GGAACACUUACUAUACUAATT against ARL5A, the median seed-adjusted z-score was inactive: 0.

GGUGAUUCUUGAUCAGAUUTT against LIPM: the median seed-adjusted z-score was inactive: -0.00856.

As to GGGAUAAGCUGAUAAAGGATT against NDUFS5, the median seed-adjusted z-score was active: -1.35.

For GGUACUACGUUGAAAGACUTT against TGFBR1, the median seed-adjusted z-score was inactive: 0.226.

With GGACUGUAAUCUAAAUCCATT against ZFYVE9, the median seed-adjusted z-score was inactive: 0.373.

As for CUAUGAAGGUUUAAGUAUATT against CAPS2, the median seed-adjusted z-score is inactive: 0.135.

Consider GGGUCUCAACUGUGAGUCATT against ARSE, for which the median seed-adjusted z-score is inactive: 0.705.

In the case of CAGAUUUGGUUUGAGAAUATT against RHOXF2, the median seed-adjusted z-score was inactive: -0.331.

For the sequence GAACUGAGCGAGCAAGUUUTT against COL6A3, the median seed-adjusted z-score is inactive: 0.341.

For GACUUUCAAGAAUUCAUAUTT against S100A12, the median seed-adjusted z-score is inactive: 0.346.

In the case of CCAUCGUGGUAGAUCCGUUTT against CBL, the median seed-adjusted z-score was inactive: -0.417.

As for GAACCAAGUCACAAAAGAATT against ADCY2, the median seed-adjusted z-score was inactive: 0.173.
